Values from PubChem BioAssay AID1224830 (NIAID, 2016).
In all, the deposit lists about 18,000 reagents; below is an unselected part. About 2,900 of all reagents (16%) were called active. 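Calls are made per well; low scores hint the gene aids the LPS response, high scores that it dampens it.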 Repeated entries: four replicate wells of each siRNA pool. No sequences are given here.

Screen: 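Regulators of TLR4 signalling towards TNF-alpha in macrophage-like cells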 (primary screen)
System: human THP-1 monocytic leukaemia cells, TNF dual-luciferase reporter clone, PMA-differentiated to macrophage-like cells
Reagent: siRNA pool against human genes, 50 nM
Duration: LPS for 4 h, given about 3 days after siRNA transfection
Treatment: bacterial LPS (TLR4 ligand), 10 ng/ml
Detection: 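TNF firefly reporter luminescence divided by renilla, normalised to the plate median, then turned into a robust z-score for each replicate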
Scale: TNF reporter robust z-score: higher = stronger TNF reporter response to LPS
Rule for the call: 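a well is active when its z-score exceeds 2.8 or falls below -1.5; control wells carry no call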

For TOP1MT (GeneID 116447) the deposit lists TNF reporter robust z-score 0.47; inactive.
TOP1MT (GeneID 116447) gave TNF reporter robust z-score 0.18; inactive.
For TOP1MT (GeneID 116447), the entry reads TNF reporter robust z-score -0.96; inactive.
For TOP1MT (GeneID 116447), the values are TNF reporter robust z-score 0.61; inactive.
Against SRRD (GeneID 402055), the entry reads TNF reporter robust z-score -0.09; inactive.
SRRD (GeneID 402055) scored TNF reporter robust z-score 0.67; inactive.
For SRRD (GeneID 402055), the entry reads TNF reporter robust z-score -0.15; inactive.
Against SRRD (GeneID 402055), the entry reads TNF reporter robust z-score 1.22; inactive.
With knock-down of RFPL2 (GeneID 10739), the screen gave TNF reporter robust z-score -1.64; active.
For RFPL2 (GeneID 10739) the deposit lists TNF reporter robust z-score -0.92; inactive.
With knock-down of RFPL2 (GeneID 10739) the results were TNF reporter robust z-score -0.78; inactive.
With knock-down of RFPL2 (GeneID 10739), the screen gave TNF reporter robust z-score -0.44; inactive.
Depletion of GRK7 (GeneID 131890) resulted in: TNF reporter robust z-score 0.65; inactive.
With knock-down of GRK7 (GeneID 131890) the results were TNF reporter robust z-score -0.73; inactive.
Against GRK7 (GeneID 131890), the values are TNF reporter robust z-score -0.39; inactive.
After knock-down of GRK7 (GeneID 131890), the screen gave TNF reporter robust z-score 0.97; inactive.
Silencing of ARID1B (GeneID 57492) came out at: TNF reporter robust z-score -1.53; active.
Against ARID1B (GeneID 57492) the deposit lists TNF reporter robust z-score -1.93; active.
ARID1B (GeneID 57492) gave TNF reporter robust z-score -1.83; active.
ARID1B (GeneID 57492) gave TNF reporter robust z-score -1.84; active.
Knock-down of PIK3R4 (GeneID 30849) gave: TNF reporter robust z-score -0.2; inactive.
Depletion of PIK3R4 (GeneID 30849) resulted in: TNF reporter robust z-score 0.68; inactive.
With knock-down of PIK3R4 (GeneID 30849), the screen gave TNF reporter robust z-score -1.35; inactive.
Against PIK3R4 (GeneID 30849), the values are TNF reporter robust z-score -0.07; inactive.
Silencing of ACVR2B (GeneID 93) resulted in: TNF reporter robust z-score -1.06; inactive.
For ACVR2B (GeneID 93) the deposit lists TNF reporter robust z-score -0.55; inactive.
Depletion of ACVR2B (GeneID 93) came out at: TNF reporter robust z-score -0.29; inactive.
After knock-down of ACVR2B (GeneID 93) the results were TNF reporter robust z-score 0.41; inactive.
Silencing of SLC35G3 (GeneID 146861) resulted in: TNF reporter robust z-score -1.17; inactive.
With knock-down of SLC35G3 (GeneID 146861) the results were TNF reporter robust z-score -1.04; inactive.
SLC35G3 (GeneID 146861) showed TNF reporter robust z-score -0.42; inactive.
Against SLC35G3 (GeneID 146861), the entry reads TNF reporter robust z-score -0.66; inactive.
Against GLG1 (GeneID 2734) the deposit lists TNF reporter robust z-score -0.91; inactive.
GLG1 (GeneID 2734) scored TNF reporter robust z-score 0.49; inactive.
After knock-down of GLG1 (GeneID 2734), the screen gave TNF reporter robust z-score -1.38; inactive.
Against GLG1 (GeneID 2734), the entry reads TNF reporter robust z-score 4.77; active.
CTH (GeneID 1491) gave TNF reporter robust z-score 0.11; inactive.
With knock-down of CTH (GeneID 1491), the record shows TNF reporter robust z-score 0.26; inactive.
After knock-down of CTH (GeneID 1491) the results were TNF reporter robust z-score 0.22; inactive.
Against CTH (GeneID 1491) the deposit lists TNF reporter robust z-score -0.61; inactive.
Depletion of CIAO2A (GeneID 84191) gave: TNF reporter robust z-score -0.15; inactive.
CIAO2A (GeneID 84191) showed TNF reporter robust z-score -0.99; inactive.
CIAO2A (GeneID 84191) showed TNF reporter robust z-score -1.24; inactive.
With knock-down of CIAO2A (GeneID 84191) the results were TNF reporter robust z-score -0.93; inactive.
CIAO2A (GeneID 84191) showed TNF reporter robust z-score 3.37; active.
CIAO2A (GeneID 84191) scored TNF reporter robust z-score 1.44; inactive.
CIAO2A (GeneID 84191) gave TNF reporter robust z-score 2.47; inactive.
Knock-down of CIAO2A (GeneID 84191) came out at: TNF reporter robust z-score 2.34; inactive.
